Data source: PubChem BioAssay AID652243 (Drosophila RNAi Screening Center, 2013)
In all, the deposit lists about 24,000 reagents; this is an unselected part of those with a known target gene and a result. In the full data, 246 (1%) got an active call. 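Plates not normalised; calls are printed but the firefly/Renilla ratio behind them is not deposited; fold cut for lowering reported inconsistently.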 Raw values vary from plate to plate and are shown uncorrected. Reagents against one gene are numbered here. A plus sign joins genes that one reagent is predicted to hit. Not stated in the record: the amount of reagent.

Screen: 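Fly regulators of androgen-dependent reporter output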 (primary screen)
Cell system: Drosophila S2R+ cells
Knock-down reagent: long dsRNA against Drosophila genes
Timing: 72 h (48 h, then 24 h hormone)
Treatment: synthetic androgen R1881 at 10 nM for 24 h
Measured: 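Firefly light from an androgen-responsive reporter and Renilla control light per well, raw and unnormalised, for each of two replicates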
Reading the numbers: firefly reporter light: higher = more light from androgen-responsive reporter; Renilla control light: higher = more constitutive control signal (cell number, transfection)
Active means: 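Across duplicate plates, a knock-down whose log firefly/Renilla ratio shifted a set fold down or up from the GFP/LacZ control mean was a hit; the downward cut appears as both 1.5 and 3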
Meaning of the calls: active = hit: reporter lowered or raised; inactive = no hit

gene	dsRNA no.	firefly reporter light, replicate 1	firefly reporter light, replicate 2	Renilla control light, replicate 1	Renilla control light, replicate 2	activity call
Dgp-1	1	1.40e5	1.58e5	1.47e6	1.47e6	inactive
CG4984 + CG4975	1	54674	79383	8.24e5	8.24e5	inactive
CG4984 + CG4975	2	1.28e6	2.82e5	1.32e6	4.48e5	inactive
GLaz	1	2.98e5	2.56e5	1.66e6	1.81e6	inactive
CG9903	1	3.67e5	3.15e5	2.47e6	2.43e6	inactive
Ras85D	1	1.27e5	1.03e5	1.55e6	1.50e6	inactive
Ras85D	2	7.45e5	7.87e5	1.31e6	1.12e6	inactive
Pglym87	1	68462	1.23e5	7.18e5	1.10e6	inactive
Pglym87	2	2.81e5	2.33e5	8.20e5	8.79e5	inactive
CG8093	1	87990	95700	1.17e6	1.17e6	inactive
ND-42	1	81921	69582	4.57e5	4.49e5	inactive
ND-42	2	5.36e5	4.89e5	9.07e5	8.60e5	inactive
CG34280	1	1.00e6	9.81e5	2.25e6	2.05e6	inactive
Cht7	1	1.27e6	1.32e6	1.66e6	1.84e6	inactive
Cht7	2	4.81e5	5.71e5	1.72e6	2.28e6	inactive
Vha26	1	19760	30580	2.83e5	2.96e5	inactive
Vha26	2	4.84e5	4.36e5	1.67e6	7.01e5	inactive
Vha26	3	9.98e5	6.02e5	1.51e6	1.11e6	inactive
Abi	1	70727	1.05e5	7.14e5	8.55e5	inactive
Abi	2	3.37e5	2.79e5	4.75e5	4.21e5	inactive
CG31810	1	3.08e5	3.33e5	7.01e5	7.87e5	inactive
CG4009	1	1.55e5	1.54e5	1.98e6	2.23e6	inactive
mRpL18	1	2.80e5	2.02e5	1.95e6	1.23e6	inactive
CG43184	1	9.35e5	8.08e5	1.33e6	1.70e6	inactive
